Measurements reported in PubChem BioAssay AID504791 (Drosophila RNAi Screening Center, 2011).
In all, the deposit lists about 23,000 reagents; this is a random part of those that have a named target and a result. In the full data, 199 (0.86%) got an active call. 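Plate-scaled ratios behind the calls are not deposited; printed light signals are raw; many rows marked increased or decreased are still called inactive.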 Further read-outs or replicates are left out here.

Assay: 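Genes whose knock-down strengthens or weakens small-RNA reporter silencing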 (primary screen)
Cells: Drosophila S2-derived reporter cells
Reagent: long dsRNA against Drosophila genes, about 150-250 ng dsRNA per well (siRNA assay); about 80-120 ng (miRNA assay)
Timing: about 5 days (siRNA assay); about 4 days (miRNA assay)
Conditions: copper sulfate induction of reporters: 25 µM (siRNA assay); 200 mM stated (miRNA assay), 1-2 days before reading
Read-out: 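Dual luciferase assay: Renilla to firefly signal ratio in each well, scaled to the mean ratio of its plate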
Scale: siRNA reporter hit score: higher = 3 marks a strong hit with raised ratio; -3 a strong hit with lowered ratio
Rule for the call: 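First-pass picks had plate-scaled ratios over 1.5 for the siRNA assay, over 1.6 for the miRNA assay, or under 0.6; two distinct dsRNAs had to score alike on retest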

no.	Target gene	PubChem SID	siRNA reporter hit score	stable siRNA reporter change	stable assay Renilla, run 1 (luminescence)	call
1	CG33169	SID104191645			5943	inactive
2	Meics (Meiotic central spindle)	SID104191205			7107	inactive
3	CG10584	SID104191416			7472	inactive
4	upd1 (unpaired 1)	SID104200150			2775	inactive
5	CG1503	SID104200304	3	reporter ratio raised past the hit cutoff	11957	inactive
6	Vha44 (Vacuolar H[+] ATPase 44kD subunit)	SID104187364			7765	inactive
7	Vha44 (Vacuolar H[+] ATPase 44kD subunit)	SID104187365			6063	inactive
8	His3.3A (Histone H3.3A)	SID104183135			7867	inactive
9	Nadk1a (NAD kinase 1a)	SID104185223			5064	inactive
10	Nadk1a (NAD kinase 1a)	SID104186755			7034	inactive
11	Vha100-4 (Vacuolar H[+] ATPase 100kD subunit 4)	SID104196074			6471	inactive
12	whe (what else)	SID104200329			6027	inactive
13	Gbs-76A (Glycogen binding subunit 76A)	SID104190873			8695	inactive
14	IntS2 (Integrator 2)	SID104199886	-3		12969	inactive
15	CG13707	SID104188108			6614	inactive
16	CG14551	SID104194686			5928	inactive
17	CG42269	SID104190462			7091	inactive
18	CG42269	SID104190464			6308	inactive
19	CG7650	SID104190690			4887	inactive
20	CG2260	SID104198015			7062	inactive
21	bnl (branchless)	SID104193169			4495	inactive
22	bnl (branchless)	SID104196705			7710	inactive
23	bnl (branchless)	SID104202569			4023	inactive
24	CG13436	SID104186188			6562	inactive
25	yellow-f2	SID104196164			5236	inactive
26	HP1D3csd (Heterochromatin Protein 1D3 chromoshadow domain)	SID104199340			5998	inactive
27	Ir52b (Ionotropic receptor 52b)	SID104186055			6354	inactive
28	tn (thin)	SID104185560			5391	inactive
29	tn (thin)	SID104186324			9075	inactive
30	GstO3 (Glutathione S transferase O3)	SID104190502			6759	inactive
31	CG34302	SID104192543			6591	inactive
32	GstE11 (Glutathione S transferase E11)	SID104186718			8831	inactive
33	l(3)72Dn (lethal (3) 72Dn)	SID104190260			8547	inactive
34	CG18180	SID104190096			7210	inactive
35	Noa36	SID104196553			7590	inactive
36	CG15107	SID104186326			7220	inactive
37	CG18343	SID104186518			6690	inactive
38	CG3108	SID104198072			7898	inactive
39	CG8414	SID104186960			6614	inactive
40	Rab32	SID104184938			4259	inactive
41	Rab32	SID104187314			9871	inactive
42	CG15890	SID104199529			4939	inactive
43	Adgf-B (Adenosine deaminase-related growth factor B)	SID104190360			7627	inactive
44	CG8960	SID104188404			11902	inactive
45	E(spl)m3-HLH (Enhancer of split m3, helix-loop-helix)	SID104196486			5296	inactive
46	E(spl)m3-HLH (Enhancer of split m3, helix-loop-helix)	SID104202517			4991	inactive
47	Vps2 (Vacuolar protein sorting 2)	SID104194678			8308	inactive
48	CG31482	SID104192374			7522	inactive
49	CG6659	SID104199795			8878	inactive
50	CG11294	SID104197569			5682	inactive
51	CG12560	SID104181966			7760	inactive
52	CG15118	SID104186332			11965	inactive
53	CG34288	SID104193356			6732	inactive
54	CR14117 (pseudo)	SID104189913			6955	inactive
55	Elp5 (Elongator complex protein 5)	SID104188339			5779	inactive
56	CG12674	SID104180140			7791	inactive
57	CG30110	SID104185478			5371	inactive

Not a retest: an excerpt of the list.
no.	Target gene	PubChem SID	siRNA reporter hit score	stable siRNA reporter change	stable assay Renilla, run 1 (luminescence)	call
12	whe (what else)	SID104200329			6027	inactive
13	Gbs-76A (Glycogen binding subunit 76A)	SID104190873			8695	inactive
14	IntS2 (Integrator 2)	SID104199886	-3		12969	inactive
15	CG13707	SID104188108			6614	inactive
16	CG14551	SID104194686			5928	inactive
17	CG42269	SID104190462			7091	inactive
18	CG42269	SID104190464			6308	inactive
